Measured values reported in publication PMC7269032, “Chiral 4-O-acylterpineol as transdermal permeation enhancers: insights of the enhancement mechanisms of a transdermal enantioselective delivery system for flurbiprofen” (Drug Delivery, 2020).

Experiment: ATR-FTIR of stratum corneum after treatment with enhancer
Parameters: species or system rabbit
Conditions: 5% (w/v) enhancer solution 20 μL, 30 min
Description: The shaved back was divided into 21 areas (each area in 1 cm^2) and randomly divided into seven groups (n = 3). The marked areas were applied with 5% (w/v) enhancer solution of 20 μL. They were administered as follows: (1) control group only the absolute ethanol; (2) group A with d-4-TER; (3) group B with l-4-TER; (4) group C with d-4-T-C14; (5) group D with l-4-T-C14; (6) group E with d-4-T- dC18; and (7) group F with l-4-T-dC18. After the enhancer was infiltrated of 30 min, the skin of the penetrated area was peeled off. Then the residual solution was blotted up and dried of 15 min. Finally, the treated skin was placed on the surface of zinc selenide (ZnSe) with an incidence angle of 45° and detected by ATR-FTIR spectroscopy (Thermo Nicolet NEXUS 470, Madison, USA). The stratum corneum was scanned 200 times in the detection wavelength range of 1000–4000 cm^−1 at a resolution of 2 cm^−1. Infrared absorption peaks were analyzed using Oringe 7.0.

| Compound | OH vibration peak position of SC lipids after treatment (control 3271.08 cm^−1) | shift of OH stretching vibration peak position vs control |
| --- | --- | --- |
| CCCCCCCCCCCCCC(=O)OC1(C(C)C)CC=C(C)CC1 (stereo not drawn) [l-4-T-C14, l-4-methyl-1-(1-methylethyl)-3-cyclohexen-1-yl tetradecanoate] | 3275.90 cm⁻¹ |  |
| CCCCCCCCC=CCCCCCCCC(=O)OC1(C(C)C)CC=C(C)CC1 (stereo not drawn) [l-4-T-dC18, l-4-methyl-1-(1-methylethyl)-3-cyclohexen-1-yl octadec-9-enoate] |  | shifted to a lower wavenumber |
